# Data: the supplement of paper PMC11546906
# Counter-ions that a name gives are not always drawn. Some of the results follow. This data set is noisy: repeats of one test often differ as much as different tests do.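 FDA-approved drugs were each paired with colistin at one-eighth its MIC and screened against a multidrug-resistant, mcr-1-positive clinical E. coli isolate, with OD600 read after 24 h. Drug-free bacteria served as growth control, plain broth as blank. Combinations were active if OD600 dropped below 0.2.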
# System: Escherichia coli 42 (mcr-1-positive clinical isolate)
# Experiment: OD600 after 24 h growth with compound plus colistin (absorbance units (OD600)); higher = more bacterial growth (less inhibition)
# Conditions: first compound 25 µM; colistin concentration 0.5 ug/mL; incubation time 24 h; 37 °C
row,Structure (SMILES),OD600
1,CN(C)[C@@H]1C(=O)C(C(N)=O)=C(O)[C@@]2(O)C(=O)C3=C(O)c4c(O)cccc4[C@@](C)(O)[C@H]3C[C@@H]12 [Tetracycline] + CCC(C)CCCC(=O)N[C@@H](CCN)C(=O)N[C@H](C(=O)N[C@@H](CCN)C(=O)N[C@H]1CCNC(=O)[C@H]([C@@H](C)O)NC(=O)[C@H](CCN)NC(=O)[C@H](CCN)NC(=O)[C@H](CC(C)C)NC(=O)[C@@H](CC(C)C)NC(=O)[C@H](CCN)NC1=O)[C@@H](C)O [colistin],inactive: 0.928
2,Cn1c(CCCC(=O)O)nc2cc(N(CCCl)CCCl)ccc21 [Bendamustine hydrochloride] + CCC(C)CCCC(=O)N[C@@H](CCN)C(=O)N[C@H](C(=O)N[C@@H](CCN)C(=O)N[C@H]1CCNC(=O)[C@H]([C@@H](C)O)NC(=O)[C@H](CCN)NC(=O)[C@H](CCN)NC(=O)[C@H](CC(C)C)NC(=O)[C@@H](CC(C)C)NC(=O)[C@H](CCN)NC1=O)[C@@H](C)O [colistin],inactive: 0.935
3,CN(C)C(=O)Oc1ccc[n+](C)c1 [Pyridostigmine bromide] + CCC(C)CCCC(=O)N[C@@H](CCN)C(=O)N[C@H](C(=O)N[C@@H](CCN)C(=O)N[C@H]1CCNC(=O)[C@H]([C@@H](C)O)NC(=O)[C@H](CCN)NC(=O)[C@H](CCN)NC(=O)[C@H](CC(C)C)NC(=O)[C@@H](CC(C)C)NC(=O)[C@H](CCN)NC1=O)[C@@H](C)O [colistin],inactive: 0.719
4,CC[C@@H](C(N)=O)N1CCCC1=O [Levetiracetam] + CCC(C)CCCC(=O)N[C@@H](CCN)C(=O)N[C@H](C(=O)N[C@@H](CCN)C(=O)N[C@H]1CCNC(=O)[C@H]([C@@H](C)O)NC(=O)[C@H](CCN)NC(=O)[C@H](CCN)NC(=O)[C@H](CC(C)C)NC(=O)[C@@H](CC(C)C)NC(=O)[C@H](CCN)NC1=O)[C@@H](C)O [colistin],inactive: 1.12
5,CN1C(=O)CCS(=O)(=O)C1c1ccc(Cl)cc1 (stereo unspecified) [Chlormezanone] + CCC(C)CCCC(=O)N[C@@H](CCN)C(=O)N[C@H](C(=O)N[C@@H](CCN)C(=O)N[C@H]1CCNC(=O)[C@H]([C@@H](C)O)NC(=O)[C@H](CCN)NC(=O)[C@H](CCN)NC(=O)[C@H](CC(C)C)NC(=O)[C@@H](CC(C)C)NC(=O)[C@H](CCN)NC1=O)[C@@H](C)O [colistin],inactive: 1.17
6,CC(C)N(CCC(C(N)=O)(c1ccccc1)c1ccccn1)C(C)C (stereo unspecified) [Disopyramide] + CCC(C)CCCC(=O)N[C@@H](CCN)C(=O)N[C@H](C(=O)N[C@@H](CCN)C(=O)N[C@H]1CCNC(=O)[C@H]([C@@H](C)O)NC(=O)[C@H](CCN)NC(=O)[C@H](CCN)NC(=O)[C@H](CC(C)C)NC(=O)[C@@H](CC(C)C)NC(=O)[C@H](CCN)NC1=O)[C@@H](C)O [colistin],inactive: 1.12
7,C[C@]12CC[C@H]3[C@@H](CC[C@@]45O[C@@H]4C(O)=C(C#N)C[C@]35C)[C@@H]1CC[C@@H]2O [Trilostane] + CCC(C)CCCC(=O)N[C@@H](CCN)C(=O)N[C@H](C(=O)N[C@@H](CCN)C(=O)N[C@H]1CCNC(=O)[C@H]([C@@H](C)O)NC(=O)[C@H](CCN)NC(=O)[C@H](CCN)NC(=O)[C@H](CC(C)C)NC(=O)[C@@H](CC(C)C)NC(=O)[C@H](CCN)NC1=O)[C@@H](C)O [colistin],inactive: 1.02
8,CN(C)[C@@H]1C(=O)C(C(N)=O)=C(O)[C@@]2(O)C(=O)C3=C(O)c4c(O)ccc(Cl)c4[C@@](C)(O)[C@H]3C[C@@H]12 [Chlortetracycline hydrochloride] + CCC(C)CCCC(=O)N[C@@H](CCN)C(=O)N[C@H](C(=O)N[C@@H](CCN)C(=O)N[C@H]1CCNC(=O)[C@H]([C@@H](C)O)NC(=O)[C@H](CCN)NC(=O)[C@H](CCN)NC(=O)[C@H](CC(C)C)NC(=O)[C@@H](CC(C)C)NC(=O)[C@H](CCN)NC1=O)[C@@H](C)O [colistin],inactive: 0.852
9,COc1ccc2c(c1)[C@]13CCCC[C@@H]1[C@H](C2)N(C)CC3 [Dextromethorphan HBr monohydrate] + CCC(C)CCCC(=O)N[C@@H](CCN)C(=O)N[C@H](C(=O)N[C@@H](CCN)C(=O)N[C@H]1CCNC(=O)[C@H]([C@@H](C)O)NC(=O)[C@H](CCN)NC(=O)[C@H](CCN)NC(=O)[C@H](CC(C)C)NC(=O)[C@@H](CC(C)C)NC(=O)[C@H](CCN)NC1=O)[C@@H](C)O [colistin],inactive: 1.32
10,Cc1cccc([C@H](C)c2c[nH]cn2)c1C [Dexmedetomidine] + CCC(C)CCCC(=O)N[C@@H](CCN)C(=O)N[C@H](C(=O)N[C@@H](CCN)C(=O)N[C@H]1CCNC(=O)[C@H]([C@@H](C)O)NC(=O)[C@H](CCN)NC(=O)[C@H](CCN)NC(=O)[C@H](CC(C)C)NC(=O)[C@@H](CC(C)C)NC(=O)[C@H](CCN)NC1=O)[C@@H](C)O [colistin],inactive: 1.02
11,O=P1(N(CCCl)CCCl)NCCCO1 (stereo unspecified) [Cyclophosphamide hydrate] + CCC(C)CCCC(=O)N[C@@H](CCN)C(=O)N[C@H](C(=O)N[C@@H](CCN)C(=O)N[C@H]1CCNC(=O)[C@H]([C@@H](C)O)NC(=O)[C@H](CCN)NC(=O)[C@H](CCN)NC(=O)[C@H](CC(C)C)NC(=O)[C@@H](CC(C)C)NC(=O)[C@H](CCN)NC1=O)[C@@H](C)O [colistin],inactive: 0.857
12,CCC1(c2ccc(N)cc2)CCC(=O)NC1=O (stereo unspecified) [Aminoglutethimide] + CCC(C)CCCC(=O)N[C@@H](CCN)C(=O)N[C@H](C(=O)N[C@@H](CCN)C(=O)N[C@H]1CCNC(=O)[C@H]([C@@H](C)O)NC(=O)[C@H](CCN)NC(=O)[C@H](CCN)NC(=O)[C@H](CC(C)C)NC(=O)[C@@H](CC(C)C)NC(=O)[C@H](CCN)NC1=O)[C@@H](C)O [colistin],inactive: 1.06
13,O=C(O[C@H]1C[N+]2(CCCOc3ccccc3)CCC1CC2)C(O)(c1cccs1)c1cccs1 [Aclidinium bromide] + CCC(C)CCCC(=O)N[C@@H](CCN)C(=O)N[C@H](C(=O)N[C@@H](CCN)C(=O)N[C@H]1CCNC(=O)[C@H]([C@@H](C)O)NC(=O)[C@H](CCN)NC(=O)[C@H](CCN)NC(=O)[C@H](CC(C)C)NC(=O)[C@@H](CC(C)C)NC(=O)[C@H](CCN)NC1=O)[C@@H](C)O [colistin],inactive: 0.982
14,Cn1c(CCCC(=O)O)nc2cc(N(CCCl)CCCl)ccc21 [Bendamustine] + CCC(C)CCCC(=O)N[C@@H](CCN)C(=O)N[C@H](C(=O)N[C@@H](CCN)C(=O)N[C@H]1CCNC(=O)[C@H]([C@@H](C)O)NC(=O)[C@H](CCN)NC(=O)[C@H](CCN)NC(=O)[C@H](CC(C)C)NC(=O)[C@@H](CC(C)C)NC(=O)[C@H](CCN)NC1=O)[C@@H](C)O [colistin],inactive: 1.09
15,O=c1[nH]c2ccccc2n1C1CCN(CCCC(c2ccc(F)cc2)c2ccc(F)cc2)CC1 [Pimozide] + CCC(C)CCCC(=O)N[C@@H](CCN)C(=O)N[C@H](C(=O)N[C@@H](CCN)C(=O)N[C@H]1CCNC(=O)[C@H]([C@@H](C)O)NC(=O)[C@H](CCN)NC(=O)[C@H](CCN)NC(=O)[C@H](CC(C)C)NC(=O)[C@@H](CC(C)C)NC(=O)[C@H](CCN)NC1=O)[C@@H](C)O [colistin],active: 0.037
16,N=C(N)NN [Aminoguanidine hydrochloride] + CCC(C)CCCC(=O)N[C@@H](CCN)C(=O)N[C@H](C(=O)N[C@@H](CCN)C(=O)N[C@H]1CCNC(=O)[C@H]([C@@H](C)O)NC(=O)[C@H](CCN)NC(=O)[C@H](CCN)NC(=O)[C@H](CC(C)C)NC(=O)[C@@H](CC(C)C)NC(=O)[C@H](CCN)NC1=O)[C@@H](C)O [colistin],inactive: 0.667
17,N.N.[Cl][Pt][Cl] [Cisplatin] + CCC(C)CCCC(=O)N[C@@H](CCN)C(=O)N[C@H](C(=O)N[C@@H](CCN)C(=O)N[C@H]1CCNC(=O)[C@H]([C@@H](C)O)NC(=O)[C@H](CCN)NC(=O)[C@H](CCN)NC(=O)[C@H](CC(C)C)NC(=O)[C@@H](CC(C)C)NC(=O)[C@H](CCN)NC1=O)[C@@H](C)O [colistin],inactive: 0.928
18,CN(C)C(=O)Oc1cccc([N+](C)(C)C)c1 [Neostigmine methyl sulfate] + CCC(C)CCCC(=O)N[C@@H](CCN)C(=O)N[C@H](C(=O)N[C@@H](CCN)C(=O)N[C@H]1CCNC(=O)[C@H]([C@@H](C)O)NC(=O)[C@H](CCN)NC(=O)[C@H](CCN)NC(=O)[C@H](CC(C)C)NC(=O)[C@@H](CC(C)C)NC(=O)[C@H](CCN)NC1=O)[C@@H](C)O [colistin],inactive: 1.16
19,CN(C)[C@@H]1C(=O)C(C(N)=O)=C(O)[C@@]2(O)C(=O)C3=C(O)c4c(O)cccc4[C@@](C)(O)[C@H]3C[C@@H]12 [Tetracycline hydrochloride] + CCC(C)CCCC(=O)N[C@@H](CCN)C(=O)N[C@H](C(=O)N[C@@H](CCN)C(=O)N[C@H]1CCNC(=O)[C@H]([C@@H](C)O)NC(=O)[C@H](CCN)NC(=O)[C@H](CCN)NC(=O)[C@H](CC(C)C)NC(=O)[C@@H](CC(C)C)NC(=O)[C@H](CCN)NC1=O)[C@@H](C)O [colistin],inactive: 1.09
20,CN1[C@@H]2C[C@@H](OC(=O)[C@H](CO)c3ccccc3)C[C@H]1[C@@H]1O[C@@H]12 [Scopolamine hydrobromide] + CCC(C)CCCC(=O)N[C@@H](CCN)C(=O)N[C@H](C(=O)N[C@@H](CCN)C(=O)N[C@H]1CCNC(=O)[C@H]([C@@H](C)O)NC(=O)[C@H](CCN)NC(=O)[C@H](CCN)NC(=O)[C@H](CC(C)C)NC(=O)[C@@H](CC(C)C)NC(=O)[C@H](CCN)NC1=O)[C@@H](C)O [colistin],inactive: 0.901
21,CC(=O)O[C@H]1CC[C@@]2(C)C(=CC[C@@H]3[C@@H]2CC[C@]2(C)C(=O)CC[C@@H]32)C1 [Dehydroisoandrosterone 3-acetate] + CCC(C)CCCC(=O)N[C@@H](CCN)C(=O)N[C@H](C(=O)N[C@@H](CCN)C(=O)N[C@H]1CCNC(=O)[C@H]([C@@H](C)O)NC(=O)[C@H](CCN)NC(=O)[C@H](CCN)NC(=O)[C@H](CC(C)C)NC(=O)[C@@H](CC(C)C)NC(=O)[C@H](CCN)NC1=O)[C@@H](C)O [colistin],inactive: 1.01

# Quoted from the listing.
# Entry of COc1ccc2c(c1)[C@]13CCCC[C@@H]1[C@H](C2)N(C)CC3 [Dextromethorphan HBr monohydrate] + CCC(C)CCCC(=O)N[C@@H](CCN)C(=O)N[C@H](C(=O)N[C@@H](CCN)C(=O)N[C@H]1CCNC(=O)[C@H]([C@@H](C)O)NC(=O)[C@H](CCN)NC(=O)[C@H](CCN)NC(=O)[C@H](CC(C)C)NC(=O)[C@@H](CC(C)C)NC(=O)[C@H](CCN)NC1=O)[C@@H](C)O [colistin] under OD600: inactive: 1.32
# Entry of CC[C@@H](C(N)=O)N1CCCC1=O [Levetiracetam] + CCC(C)CCCC(=O)N[C@@H](CCN)C(=O)N[C@H](C(=O)N[C@@H](CCN)C(=O)N[C@H]1CCNC(=O)[C@H]([C@@H](C)O)NC(=O)[C@H](CCN)NC(=O)[C@H](CCN)NC(=O)[C@H](CC(C)C)NC(=O)[C@@H](CC(C)C)NC(=O)[C@H](CCN)NC1=O)[C@@H](C)O [colistin] under OD600: inactive: 1.12
